Experimental data reported in patent EP4703375A1.
These are yes or no findings as the source states them, for the method shown. Some results given as binding are weak or reduced against the parent protein; the word gives no strength.

Protein sequences, listed by entry. Tags and fused reporters are not part of them. Lines headed by an entry give the natural chain unless they say otherwise; changes in a name come on top.
UniProt P15813: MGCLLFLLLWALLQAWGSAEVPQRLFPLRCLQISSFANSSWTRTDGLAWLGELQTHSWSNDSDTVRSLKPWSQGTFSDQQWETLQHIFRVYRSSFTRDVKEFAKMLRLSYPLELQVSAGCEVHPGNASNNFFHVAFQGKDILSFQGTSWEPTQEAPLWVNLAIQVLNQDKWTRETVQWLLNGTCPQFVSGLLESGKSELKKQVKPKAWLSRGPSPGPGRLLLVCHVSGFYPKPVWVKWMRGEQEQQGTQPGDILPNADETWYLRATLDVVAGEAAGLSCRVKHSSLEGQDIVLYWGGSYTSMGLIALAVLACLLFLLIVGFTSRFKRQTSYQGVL

Target: CD1d tetramer loaded with α-GalCer (MBL TS-HCG-1) (UniProt P15813)
Test: tetramer staining of TCR-knockout NFAT-Luc Jurkat cells transduced with the TCR

- binding: binds
B1: control iTCR (disclosed iNKT TCR) (TCR, V domains shown)
V domain 1: RGNGKNQVEQSPQSLIILEGKNCTLQCNYTVSPFSNLRWYKQDTGRGPVSLTIMTFSENTKSNGRYTATLDADTKQSSLHITASQLSDSASYICVVSDRGSTLGRLYFGRGTQLTVWP
V domain 2: DIYQTPRYLVIGTGKKITLECSQTMGHDKMYWYQQDPGMELHLIHYSYGVNSTEKGDLSSESTVSRIRTEHFPLTLESARPSHTSQYLCASSEGGGLKLAKNIQYFGAGTRLSVLE
